Measured values published in article PMC12090556.
These are yes or no findings as the source states them, for the method shown. Binding seen in cells or lysates may run through a third protein. A yes stands for co-enrichment or nearness to the bait. Other partners may have been found. Sequences can lack the tags named with a protein.

By UniProt entry, the sequences of proteins in these tests, tags left out. Residues count along the entry.
UniProt P08581, residues 25-1390: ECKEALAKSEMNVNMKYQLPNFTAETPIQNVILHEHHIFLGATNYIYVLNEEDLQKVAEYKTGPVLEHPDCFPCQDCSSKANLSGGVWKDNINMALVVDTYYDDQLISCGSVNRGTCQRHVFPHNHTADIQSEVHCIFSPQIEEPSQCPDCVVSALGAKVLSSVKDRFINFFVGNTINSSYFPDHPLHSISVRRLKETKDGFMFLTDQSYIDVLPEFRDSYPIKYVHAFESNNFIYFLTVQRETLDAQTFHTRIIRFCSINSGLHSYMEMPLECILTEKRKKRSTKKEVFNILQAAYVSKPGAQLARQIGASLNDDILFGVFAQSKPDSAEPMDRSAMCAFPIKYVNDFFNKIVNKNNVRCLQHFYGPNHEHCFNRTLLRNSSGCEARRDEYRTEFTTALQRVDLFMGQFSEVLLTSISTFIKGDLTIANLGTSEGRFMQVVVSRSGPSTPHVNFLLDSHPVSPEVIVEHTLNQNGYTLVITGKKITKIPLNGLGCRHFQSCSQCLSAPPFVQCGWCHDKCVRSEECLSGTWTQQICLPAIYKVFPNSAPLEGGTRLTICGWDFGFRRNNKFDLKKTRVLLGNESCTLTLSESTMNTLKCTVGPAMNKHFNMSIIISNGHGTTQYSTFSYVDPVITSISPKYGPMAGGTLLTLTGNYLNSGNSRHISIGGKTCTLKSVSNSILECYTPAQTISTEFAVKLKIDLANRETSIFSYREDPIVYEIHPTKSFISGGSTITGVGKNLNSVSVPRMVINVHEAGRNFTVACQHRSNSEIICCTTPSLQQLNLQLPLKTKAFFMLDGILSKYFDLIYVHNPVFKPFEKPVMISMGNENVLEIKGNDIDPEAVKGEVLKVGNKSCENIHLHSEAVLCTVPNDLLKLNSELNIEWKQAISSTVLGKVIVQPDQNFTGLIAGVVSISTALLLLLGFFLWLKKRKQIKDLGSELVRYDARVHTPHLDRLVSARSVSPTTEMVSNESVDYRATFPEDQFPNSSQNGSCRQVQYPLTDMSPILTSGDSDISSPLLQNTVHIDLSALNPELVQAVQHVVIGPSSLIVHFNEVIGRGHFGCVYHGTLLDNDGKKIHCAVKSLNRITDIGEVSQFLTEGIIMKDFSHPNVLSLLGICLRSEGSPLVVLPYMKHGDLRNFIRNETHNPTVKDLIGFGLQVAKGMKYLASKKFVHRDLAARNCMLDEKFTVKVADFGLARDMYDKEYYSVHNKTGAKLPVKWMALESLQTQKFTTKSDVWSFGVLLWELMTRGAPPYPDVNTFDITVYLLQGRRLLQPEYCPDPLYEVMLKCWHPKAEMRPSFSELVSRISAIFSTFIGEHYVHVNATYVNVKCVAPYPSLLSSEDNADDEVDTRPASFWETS

T1: HHLA2-HA (UniProt Q9UM44)
T1 sequence (chain, glycosylated (N-linked; sites not named)): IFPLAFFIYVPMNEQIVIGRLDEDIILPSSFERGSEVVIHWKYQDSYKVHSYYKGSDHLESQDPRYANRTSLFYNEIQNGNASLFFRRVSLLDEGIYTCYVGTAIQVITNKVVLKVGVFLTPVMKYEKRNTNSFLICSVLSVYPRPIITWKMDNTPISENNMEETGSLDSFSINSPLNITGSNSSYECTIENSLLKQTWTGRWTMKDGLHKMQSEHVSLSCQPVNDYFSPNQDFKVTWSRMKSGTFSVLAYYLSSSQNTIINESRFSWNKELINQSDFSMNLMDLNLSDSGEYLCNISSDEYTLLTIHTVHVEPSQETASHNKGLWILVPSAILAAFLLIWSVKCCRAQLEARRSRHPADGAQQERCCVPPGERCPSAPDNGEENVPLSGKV

B1: STT3A (enzyme, UniProt P46977 1-705)
chain: MTKFGFLRLSYEKQDTLLKLLILSMAAVLSFSTRLFAVLRFESVIHEFDPYFNYRTTRFLAEEGFYKFHNWFDDRAWYPLGRIIGGTIYPGLMITSAAIYHVLHFFHITIDIRNVCVFLAPLFSSFTTIVTYHLTKELKDAGAGLLAAAMIAVVPGYISRSVAGSYDNEGIAIFCMLLTYYMWIKAVKTGSICWAAKCALAYFYMVSSWGGYVFLINLIPLHVLVLMLTGRFSHRIYVAYCTVYCLGTILSMQISFVGFQPVLSSEHMAAFGVFGLCQIHAFVDYLRSKLNPQQFEVLFRSVISLVGFVLLTVGALLMLTGKISPWTGRFYSLLDPSYAKNNIPIIASVSEHQPTTWSSYYFDLQLLVFMFPVGLYYCFSNLSDARIFIIMYGVTSMYFSAVMVRLMLVLAPVMCILSGIGVSQVLSTYMKNLDISRPDKKSKKQQDSTYPIKNEVASGMILVMAFFLITYTFHSTWVTSEAYSSPSIVLSARGGDGSRIIFDDFREAYYWLRHNTPEDAKVMSWWDYGYQITAMANRTILVDNNTWNNTHISRVGQAMASTEEKAYEIMRELDVSYVLVIFGGLTGYSSDDINKFLWMVRIGGSTDTGKHIKENDYYTPTGEFRVDREGSPVLLNCLMYKMCYYRFGQVYTEAKRPPGFDRVRNAEIGNKDFELDVLEEAYTTEHWLVRIYKVKDLDNRGLSRT

Biological target: T1, HHLA2-HA
Assay: affinity purification with mass spectrometry; anti-HA immunoprecipitates from HepG2-HHLA2-HA against HepG2-Vec cells; label-free, semi-quantitative mass spectrometry

| Molecule | binding |
| --- | --- |
| c-Met (from UniProt P08581 25-1390) (receptor) | binds |
| B1 | binds |
